Source: PubChem BioAssay AID493014 (National Center for Advancing Translational Sciences (NCATS), 2011)
The list shows a part of the results. These are further read-outs of the screen, such as a control signal, another cell line or another target. No call is given for them. Most of these compounds were active or inconclusive in the main read-out, so they are no random draw. Potencies come from curve fits of mixed quality, noted in brackets.

Experiment: qHTS Assay to Find Inhibitors of Chronic Active B-Cell Receptor Signaling
Conditions: ABC-DLBCL IkBa-CBG/CBR reporter, luminescence ratio (green luciferase fused to IkBa over red control in TMD8 lymphoma cells), 4 h
Summary of the method: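 Doxycycline induced both beetle luciferases in TMD8 lymphoma cells; IKK-driven degradation limits the IkappaBalpha-fused green signal, while red luminescence normalises for cell number and nonspecific effects. Compounds tested up to 46 uM, 4 hrs.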

[1] = measured here: CBR red luminescence, cell number
[2] = measured here: IkBa-CBG green luminescence

SMILES	AC50 [1]	AC50 [2]
COc1cc(NC(=O)NNC(=O)c2cc3occc3n2C)cc(OC)c1OC	20 µM [falling, partial curve, poor fit]	
NC(=S)Nc1nc2ccccc2s1		0.631 µM [falling, full curve, poor fit]
COc1ccc(-c2noc(CCC(=O)N3CCN(c4cccc(C)c4C)CC3)n2)cc1	20.6 µM [rising, partial curve]	
O=c1cc(-c2ccccc2)[nH]c2ccc(F)cc12		10.3 µM [falling, partial curve]
CCOC(=O)C1CCN(C(=O)CN(Cc2ccc(Cl)cc2)S(C)(=O)=O)CC1	2.91 µM [falling, partial curve, poor fit]	
N#C/C(=C\c1ccc(N2CCOCC2)o1)C(=O)NC1CCCCC1	22.4 µM [falling, single point]	
COc1cc(-c2cc(C(=O)Nc3ccc(O)cc3)c3ccccc3n2)cc(OC)c1OC	35.5 µM [falling, single point]	
CCCCNc1c(-c2cccc(Sc3ccc(OC)cc3)c2)nc2ccccn12	23.1 µM [falling, single point]	
Cc1ccn2cc(-c3ccc(NC(=O)c4ccco4)cc3)nc2c1	1.84 µM [rising, partial curve, poor fit]	
COc1ccc(-c2c(C)n([O-])c(C)c(C)[n+]2=O)cc1	18.4 µM [rising, partial curve]	
O=C(Nc1cnc2ccccc2c1)c1cccc(-n2cnnn2)c1	7.08 µM [falling, partial curve]	
COc1ccc(OC)c(NC(=O)C2CCN(c3cc(-c4ccccc4)nc4ncnn34)CC2)c1	3.26 µM [rising, single point]	
O=C(CSc1cccc[n+]1[O-])NN(c1ccccc1)c1ccccc1	7.08 µM [rising, full curve, poor fit]	
COc1ccc(C(=O)/C=C/c2ccc(O)cc2)c2c1CC(O)C(C)(C)O2 (stereo not drawn)		23.1 µM [falling, partial curve, poor fit]
Cc1ccc(O)c(C2=NCCNC(C(F)(F)C(F)F)=C2)c1	0.231 µM [falling, full curve, poor fit]	
Cc1cc(Cl)cc(Cl)c1OCC(=O)NCc1ccco1	8.91 µM [falling, partial curve, poor fit]	
Cc1ccc(OCC(=O)Nc2cccnc2Cl)cc1C	35.5 µM [falling, single point]	
COc1ccc2nc(N3CCC(O)CC3)c(C#N)cc2c1	14.1 µM [rising, partial curve]	

Some of the entries so far, comma-delimited:
SMILES,AC50 [1],AC50 [2]
COc1ccc(C(=O)/C=C/c2ccc(O)cc2)c2c1CC(O)C(C)(C)O2 (stereo not drawn),,"23.1 µM [falling, partial curve, poor fit]"
Cc1ccc(O)c(C2=NCCNC(C(F)(F)C(F)F)=C2)c1,"0.231 µM [falling, full curve, poor fit]",
